Binding data for 1 molecule are collected here from patent publication CN115707716A.

No constants are given. Whether binding was seen depends on the method and setting. Some results given as binding are weak or reduced against the parent protein; the word gives no strength.

This assay has as its target T1, TGF-β2 (UniProt P61812).
T1 sequence (looked up): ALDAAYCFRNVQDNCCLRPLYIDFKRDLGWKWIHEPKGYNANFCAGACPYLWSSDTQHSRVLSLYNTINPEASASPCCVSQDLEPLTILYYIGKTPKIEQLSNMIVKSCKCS
Briefly: BLI (octet), TGF-β2 coupled to AR2G probe, antibody in solution.

B1: 抗TGF-β单抗12.7 (antibody, human IgG4 S228P, kappa, V domains shown)
VH: QVQLVQSGAEVKKPGASVKVSCKASGYTFTSEWMNWVRQAPGQGLEWMGQIFPALGSTNYNEMYEGRVTMTTDTSTSTAYMELRSLRSDDTAVYYCARGIGNYALDAMDYWGQGTLVTVSS
VL: DIQMTQSPSSLSASVGDRVTITCRASESVDFYGNSFMHWYQQKPGKAPKLLIYLASNLESGVPSRFSGSGSGTDFTLTISSLQPEDFATYYCQQNIEDPLTFGGGTKVEIKR
Consider B1, for which the binding result was “binds”.
